# Measurements taken from PubChem BioAssay AID1671190 (National Center for Advancing Translational Sciences (NCATS), 2021).
# Sequences of proteins named here, by UniProt entry; tags and fusion partners are left off. A change or cut given only in a name is not applied to a line headed by its entry.
# UniProt P18054: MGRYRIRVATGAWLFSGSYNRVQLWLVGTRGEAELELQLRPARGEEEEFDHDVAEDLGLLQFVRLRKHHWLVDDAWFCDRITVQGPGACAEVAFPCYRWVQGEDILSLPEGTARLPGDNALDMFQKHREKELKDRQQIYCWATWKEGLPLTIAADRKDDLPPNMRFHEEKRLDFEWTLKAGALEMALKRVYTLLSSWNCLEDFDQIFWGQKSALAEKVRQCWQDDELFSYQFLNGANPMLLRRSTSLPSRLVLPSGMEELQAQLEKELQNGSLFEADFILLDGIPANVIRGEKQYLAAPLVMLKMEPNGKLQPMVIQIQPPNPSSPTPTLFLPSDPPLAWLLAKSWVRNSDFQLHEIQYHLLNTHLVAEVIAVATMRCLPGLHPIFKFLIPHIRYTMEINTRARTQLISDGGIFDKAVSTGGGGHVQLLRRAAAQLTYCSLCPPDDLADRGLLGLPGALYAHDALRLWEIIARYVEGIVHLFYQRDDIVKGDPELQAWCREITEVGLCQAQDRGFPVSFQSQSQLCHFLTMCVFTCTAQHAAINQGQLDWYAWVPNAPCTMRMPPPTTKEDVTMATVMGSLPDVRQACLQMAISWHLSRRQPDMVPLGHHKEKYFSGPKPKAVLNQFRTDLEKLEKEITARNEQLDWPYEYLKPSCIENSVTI
# The whole screen tested about 580,000 compounds, of which about 6,100 (1.1%) were called active. Inconclusive means that the source gave no clear call. Such entries were picked first, then a sample of the others. Calls come from the whole dose curve; as a rule, active = well fitted inhibition curve with a large enough effect; inconclusive = small, poorly fitted or top-dose-only effect, or another doubt; inactive = no such curve, though single readings can be large or run the other way. Where the call is inconclusive, the potency comes from a doubtful curve fit.
# Target: Polyunsaturated fatty acid lipoxygenase ALOX12 (Homo sapiens) (UniProt P18054)
# Assay: Primary qHTS assay for inhibitors of human arachidonate 12S-lipoxygenase (ALOX12): Round 2
# Conditions: purified 12hLO, xylenol orange hydroperoxide absorbance; activity change, negative = inhibition: at 108 µM (top of the series) unless noted
# Procedure, shortened: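 Hydroperoxide product was detected by ferrous iron/xylenol orange as the 573 to 405 nm absorbance ratio. Arachidonic acid at 40 uM (final) was turned over for 30 min at room temperature by 150 nM human 12hLO, pH 7.0 Hepes buffer, after 15 min compound preincubation.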
# % is set by controls: 0 for no effect and ±100 for the full control effect; potency is the fitted concentration of half-maximal effect.
Structure (SMILES),Potency,"activity change, negative = inhibition"
N#Cc1c([N+](=O)[O-])cc([N+](=O)[O-])cc1S(=O)(=O)Cc1ccccc1,"inconclusive: 39.8 µM [inhibitor, partial curve, poor fit]",
O=c1[nH]c(SCc2n[nH]c(=S)n2-c2ccccc2)nc2ccccc12,"inconclusive: 39.8 µM [inhibitor, partial curve, poor fit]",
Nc1nnnn1NCc1ccc(-c2ccccc2)o1,"inconclusive: 126 µM [inhibitor, single point]",
COc1ccccc1NS(=O)(=O)c1ccc(N/N=C/C=C/c2ccccc2[N+](=O)[O-])c([N+](=O)[O-])c1,,inactive: -3.53%
CC(=O)C(C(C)=O)C1(O)C(=O)c2ccccc2C1=O,"inconclusive: 35.5 µM [inhibitor, partial curve]",
CC1CCN(C(=O)Cn2nnnc2-c2ccc(Cl)cc2)CC1,"inconclusive: 79.4 µM [inhibitor, single point]",
CCOC(=O)C1=C(N)Oc2ccc3ccccc3c2C1c1cccnc1 (stereo not given),"inconclusive: 44.7 µM [inhibitor, partial curve, poor fit]",
Cc1ccccc1CN1CCC(CNC(=O)Nc2cn(CC(C)C)c(=O)c3ccccc23)CC1,"inconclusive: 50.1 µM [inhibitor, partial curve, poor fit]",
Cc1cc(NC(=O)c2cc(-c3cccnc3)nc3c(C)c(C)ccc23)no1,,inactive: 16.4%
N#CC1(C(=O)Nc2ccc(Cl)cc2)CCCC1,"inconclusive: 70.8 µM [inhibitor, single point]",
COc1ccccc1Oc1ccc2c(c1)C(=O)N(CC1CCCO1)C2=O (stereo not given),"inconclusive: 112 µM [inhibitor, single point]",
CC(=O)N1CCc2c(sc(NC(=O)CN3C(=O)CCC3=O)c2C(N)=O)C1,"inconclusive: 79.4 µM [inhibitor, partial curve, poor fit]",
O=C(O)CCn1ncc2cc(OCc3ccc(-c4cncnc4)cc3)ccc21,"inconclusive: 22.4 µM [inhibitor, full curve]",
CC(C)C(=O)N1CCC2(CC1)OC(=O)N(CCOc1ccccc1)C2(C)c1cccnc1 (stereo not given),,inactive: -13.7% [at 176 µM]
COc1cc2c(cc1OC)C(C(N)=O)NCC2 (stereo not given),"inconclusive: 39.8 µM [inhibitor, partial curve, poor fit]",
CCCNc1c(NC(=O)Nc2ccccc2OCC)c(=O)oc2ccccc12,"inconclusive: 15.8 µM [inhibitor, single point]",
CN1C(=S)SC(C)(C)C1N(O)C(=O)Nc1ccc(Cl)cc1 (stereo not given),,inactive: -11.5%
COCCNc1nc(-c2cccc(OC)c2)nc2ccccc12,"inconclusive: 6.31 µM [inhibitor, full curve, poor fit]",
Cc1ccc(C)c2c1cc(C)c1nnc(SCC(=O)NCc3ccc4c(c3)OCO4)n12,"inconclusive: 56.2 µM [inhibitor, partial curve, poor fit]",
COc1ccc(C(C)=O)c(OCc2ccc(C#N)cc2)c1,,inactive: -0.96%
COc1cc(/C=N/OCC(=O)NC2CCCCC2)ccc1OCc1ccccc1,,inactive: 0.556%
COc1ccc(N2CC3CCC(C2)N3Cc2cccc(-c3ccsc3)c2)cc1,"inconclusive: 89.1 µM [inhibitor, single point]",
Cc1onc(-c2c(F)cccc2Cl)c1C(=O)Nc1sc(C)c(-c2ccccc2)c1C(N)=O,"inconclusive: 44.7 µM [inhibitor, single point]",

# Pulled by compound from above:
Structure (SMILES),Potency,"activity change, negative = inhibition"
Cc1onc(-c2c(F)cccc2Cl)c1C(=O)Nc1sc(C)c(-c2ccccc2)c1C(N)=O,"inconclusive: 44.7 µM [inhibitor, single point]",
CCCNc1c(NC(=O)Nc2ccccc2OCC)c(=O)oc2ccccc12,"inconclusive: 15.8 µM [inhibitor, single point]",
CCOC(=O)C1=C(N)Oc2ccc3ccccc3c2C1c1cccnc1 (stereo not given),"inconclusive: 44.7 µM [inhibitor, partial curve, poor fit]",
N#CC1(C(=O)Nc2ccc(Cl)cc2)CCCC1,"inconclusive: 70.8 µM [inhibitor, single point]",

# (next part)

Structure (SMILES),Potency,"activity change, negative = inhibition"
CC[n+]1c(C)ccc2ccccc21,active: 15.8 µM,
COc1ccccc1N1CCN(/N=C\c2cccnc2)CC1,"inconclusive: 39.8 µM [inhibitor, single point]",
COCCn1nnnc1CN1CCN2CCCC2C1 (stereo not given),"inconclusive: 12.6 µM [inhibitor, full curve]",
O=C(NC1CC1)C1=C[C@H](c2ccc(C(F)(F)F)cc2)C[C@H](OCc2ccc(CO)cc2)O1,"inconclusive: 31.6 µM [inhibitor, partial curve, poor fit]",
COCc1c(Br)c(C)nc2sc3c(=O)n(-c4cccc(Br)c4)nnc3c12,,inactive: -8.2%
Cc1noc(C)c1-c1cc(N(C)Cc2ccco2)ncn1,"inconclusive: 7.94 µM [inhibitor, full curve, poor fit]",
COc1ccc(NC(=O)Nc2cccc(-c3ccc(N4CCCCC4)nn3)c2)c(OC)c1,,inactive: 37.5%
Cc1cc2nc(-c3ccccc3)cc(=O)n2[nH]1,"inconclusive: 10 µM [inhibitor, partial curve, poor fit]",
CN(Cc1ccccc1)S(=O)(=O)c1ccc(Cl)c(C(=O)Nc2cccc3cccnc23)c1,,inactive: -8.55%
O[C@@H]1CO[C@H]2[C@@H]1OC[C@@H]2n1nnnc1Sc1ccccc1,,inactive: -9.19% [at 176 µM]
CC(C)(C)OC(=O)COc1ccc2c(=O)c(-c3ccccc3)coc2c1,,inactive: -7.38%
CC(C)N1C(=O)C2C(c3ccccc3O)NC(C)(C(=O)O)C2C1=O (stereo not given),,inactive: 21.9%
CC(NC(=O)c1ccco1)c1nc(-c2ccccc2)no1 (stereo not given),inactive,
N#Cc1[nH]nc2nc[nH]c(=O)c12,"inconclusive: 70.8 µM [inhibitor, partial curve, poor fit]",
COc1cc(/C=N/NC(=O)CSc2n[nH]c(=O)[nH]c2=O)cc(OC)c1O,,inactive: -20.6%
Nc1ccc([N+](=O)[O-])cc1O,"inconclusive: 23.3 µM [inhibitor, partial curve, poor fit]",
CCOC(=O)C1=C(C)N(CC)C(=S)NC1c1ccc(Cl)cc1 (stereo not given),"inconclusive: 39.8 µM [inhibitor, partial curve, poor fit]",
Cc1ccc(F)cc1NC(=O)C(C)C,"inconclusive: 35.5 µM [inhibitor, single point]",
O=C(CNC(=O)c1ccc(Oc2ccccc2)cc1)OC1CCCCC1=O (stereo not given),"inconclusive: 44.7 µM [inhibitor, partial curve, poor fit]",
Cc1ccc(C2CCCN2C(=O)CSc2nnnn2C2CC2)cc1 (stereo not given),,inactive: 8.11%
O=C(CN1CCc2ccccc2C1)Nc1ccccc1F,"inconclusive: 100 µM [inhibitor, single point]",
COc1cc(C(=O)NC2CCOC2=O)cc(OC)c1OC (stereo not given),"inconclusive: 25.1 µM [inhibitor, partial curve, poor fit]",
